# Laboratory results: paper PMC5501841
# The chains behind the UniProt entries cited, without tags or fusion partners. Where a name states a change or a piece, a line headed by the entry shows the natural chain unless it says otherwise. Residues count along the entry.
# UniProt P04004, residues 20-478: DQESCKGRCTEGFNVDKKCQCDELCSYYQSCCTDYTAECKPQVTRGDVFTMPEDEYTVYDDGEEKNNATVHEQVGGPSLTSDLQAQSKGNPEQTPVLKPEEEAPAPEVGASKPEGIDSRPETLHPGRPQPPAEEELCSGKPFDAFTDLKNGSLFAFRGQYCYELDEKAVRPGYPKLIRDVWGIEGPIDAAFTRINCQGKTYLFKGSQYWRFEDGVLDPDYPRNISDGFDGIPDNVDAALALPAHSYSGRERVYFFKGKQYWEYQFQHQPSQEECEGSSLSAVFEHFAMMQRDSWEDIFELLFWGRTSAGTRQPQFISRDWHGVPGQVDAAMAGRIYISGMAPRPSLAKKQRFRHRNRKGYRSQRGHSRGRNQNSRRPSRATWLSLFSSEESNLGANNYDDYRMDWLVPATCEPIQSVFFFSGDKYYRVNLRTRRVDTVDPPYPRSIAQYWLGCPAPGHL
# UniProt P02454: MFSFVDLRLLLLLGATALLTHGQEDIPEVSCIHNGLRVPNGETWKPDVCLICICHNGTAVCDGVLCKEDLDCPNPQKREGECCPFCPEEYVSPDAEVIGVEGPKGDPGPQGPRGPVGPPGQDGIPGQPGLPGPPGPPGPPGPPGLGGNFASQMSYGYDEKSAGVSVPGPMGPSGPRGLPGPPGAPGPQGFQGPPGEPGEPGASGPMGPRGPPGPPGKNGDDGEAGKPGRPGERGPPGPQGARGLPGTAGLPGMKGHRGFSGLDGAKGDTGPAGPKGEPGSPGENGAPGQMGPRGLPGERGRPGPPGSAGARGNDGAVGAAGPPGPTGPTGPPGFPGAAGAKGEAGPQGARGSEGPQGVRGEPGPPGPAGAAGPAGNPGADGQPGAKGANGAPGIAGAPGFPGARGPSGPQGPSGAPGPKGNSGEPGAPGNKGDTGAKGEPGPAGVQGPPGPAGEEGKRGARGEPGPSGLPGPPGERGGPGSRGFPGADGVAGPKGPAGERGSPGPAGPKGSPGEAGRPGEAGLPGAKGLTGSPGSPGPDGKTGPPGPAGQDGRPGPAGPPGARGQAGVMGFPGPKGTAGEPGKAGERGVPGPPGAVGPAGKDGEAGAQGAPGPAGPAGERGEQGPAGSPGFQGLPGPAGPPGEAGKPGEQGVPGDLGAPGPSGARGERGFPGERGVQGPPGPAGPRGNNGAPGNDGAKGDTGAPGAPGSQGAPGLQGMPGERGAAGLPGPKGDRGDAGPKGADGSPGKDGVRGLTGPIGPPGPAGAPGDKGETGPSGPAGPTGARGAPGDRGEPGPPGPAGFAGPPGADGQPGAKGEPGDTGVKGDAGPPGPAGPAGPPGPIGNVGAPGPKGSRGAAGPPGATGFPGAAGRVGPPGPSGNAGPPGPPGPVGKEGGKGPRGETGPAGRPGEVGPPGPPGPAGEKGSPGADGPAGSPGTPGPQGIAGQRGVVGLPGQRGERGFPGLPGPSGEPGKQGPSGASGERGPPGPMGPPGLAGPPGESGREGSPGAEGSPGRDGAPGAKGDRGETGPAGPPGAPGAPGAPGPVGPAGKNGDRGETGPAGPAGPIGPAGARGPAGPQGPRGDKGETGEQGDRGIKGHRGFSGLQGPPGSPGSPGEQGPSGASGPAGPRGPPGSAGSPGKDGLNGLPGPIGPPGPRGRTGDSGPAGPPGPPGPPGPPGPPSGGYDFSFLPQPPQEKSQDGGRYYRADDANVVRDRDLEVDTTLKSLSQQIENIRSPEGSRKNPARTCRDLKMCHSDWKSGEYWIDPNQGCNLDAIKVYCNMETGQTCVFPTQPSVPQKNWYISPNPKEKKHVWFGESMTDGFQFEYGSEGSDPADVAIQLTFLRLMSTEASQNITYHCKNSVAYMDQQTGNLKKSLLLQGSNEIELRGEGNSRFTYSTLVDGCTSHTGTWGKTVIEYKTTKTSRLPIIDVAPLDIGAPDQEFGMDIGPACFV
# UniProt O15072: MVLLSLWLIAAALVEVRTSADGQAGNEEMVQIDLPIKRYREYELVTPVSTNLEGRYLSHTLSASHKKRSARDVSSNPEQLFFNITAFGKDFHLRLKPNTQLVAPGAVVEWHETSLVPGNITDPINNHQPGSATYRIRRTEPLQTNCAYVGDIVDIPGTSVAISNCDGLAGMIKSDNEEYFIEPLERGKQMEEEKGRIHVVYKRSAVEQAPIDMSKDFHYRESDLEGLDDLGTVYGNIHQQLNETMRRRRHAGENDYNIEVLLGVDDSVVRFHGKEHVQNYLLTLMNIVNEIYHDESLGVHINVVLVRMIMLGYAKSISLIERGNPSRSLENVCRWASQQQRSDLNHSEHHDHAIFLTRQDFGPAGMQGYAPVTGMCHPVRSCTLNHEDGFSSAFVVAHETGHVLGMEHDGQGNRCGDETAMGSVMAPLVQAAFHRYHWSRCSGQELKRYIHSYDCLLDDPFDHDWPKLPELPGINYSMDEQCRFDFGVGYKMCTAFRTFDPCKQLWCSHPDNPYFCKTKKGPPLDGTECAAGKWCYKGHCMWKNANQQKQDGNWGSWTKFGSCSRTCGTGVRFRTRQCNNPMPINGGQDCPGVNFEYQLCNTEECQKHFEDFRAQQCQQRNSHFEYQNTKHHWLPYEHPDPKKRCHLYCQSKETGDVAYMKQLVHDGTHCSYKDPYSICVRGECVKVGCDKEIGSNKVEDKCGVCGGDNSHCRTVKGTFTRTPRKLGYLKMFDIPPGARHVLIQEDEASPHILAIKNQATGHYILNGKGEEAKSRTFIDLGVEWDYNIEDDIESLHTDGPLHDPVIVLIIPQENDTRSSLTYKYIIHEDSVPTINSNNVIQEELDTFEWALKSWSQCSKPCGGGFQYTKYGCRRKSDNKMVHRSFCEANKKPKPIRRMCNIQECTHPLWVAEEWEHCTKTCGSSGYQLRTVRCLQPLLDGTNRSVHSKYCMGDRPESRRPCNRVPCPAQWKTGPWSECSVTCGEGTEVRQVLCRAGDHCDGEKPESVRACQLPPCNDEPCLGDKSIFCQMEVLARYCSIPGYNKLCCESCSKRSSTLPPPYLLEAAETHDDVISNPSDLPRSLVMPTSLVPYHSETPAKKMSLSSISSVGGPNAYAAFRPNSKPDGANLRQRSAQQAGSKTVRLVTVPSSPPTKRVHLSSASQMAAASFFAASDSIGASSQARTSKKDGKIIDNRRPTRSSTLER
# UniProt P49767: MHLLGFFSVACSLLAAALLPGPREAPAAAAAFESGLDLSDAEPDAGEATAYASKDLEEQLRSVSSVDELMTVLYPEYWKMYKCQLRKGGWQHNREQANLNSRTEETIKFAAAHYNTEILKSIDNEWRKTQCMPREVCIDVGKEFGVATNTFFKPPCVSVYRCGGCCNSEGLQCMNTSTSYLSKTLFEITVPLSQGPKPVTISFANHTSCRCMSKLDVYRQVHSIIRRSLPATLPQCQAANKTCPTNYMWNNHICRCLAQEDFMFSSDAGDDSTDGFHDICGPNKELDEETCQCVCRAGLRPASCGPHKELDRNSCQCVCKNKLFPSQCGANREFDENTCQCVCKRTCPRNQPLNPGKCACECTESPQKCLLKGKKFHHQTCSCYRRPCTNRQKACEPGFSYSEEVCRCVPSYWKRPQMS
# B1: CCBE1-StrepIII (protein, UniProt Q6UXH8 35-406)
# chain: YREEPEDGDREICSESKIATTKYPCLKSSGELTTCYRKKCCKGYKFVLGQCIPEDYDVCAEAPCEQQCTDNFGRVLCTCYPGYRYDRERHRKREKPYCLDIDECASSNGTLCAHICINTLGSYRCECREGYIREDDGKTCTRGDKYPNDTGHEKSENMVKAGTCCATCKEFYQMKQTVLQLKQKIALLPNNAADLGKYITGDKVLASNTYLPGPPGLPGGQGPPGSPGPKGSPGFPGMPGPPGQPGPRGSMGPMGPSPDLSHIKQGRRGPVGPPGAPGRDGSKGERGAPGPRGSPGPPGSFDFLLLMLADIRNDITELQEKVFGHRTHSSAEEFPLPQEFPSYPEAMDLGSGDDHPRRTETRDLRAPRDFYP
# What was measured:
# [1] = molecular target: recombinant vitronectin-Fc (UniProt P04004); assay: ELISA; solid-phase binding assay; vitronectin-Fc, human VEGFR-3/IgG fusion proteins or BSA coated at 20 μg/ml in PBS; CCBE1-175-V5 at 10 μg/ml in PBS overnight at 4 °C with 1 mM CaCl2; detected with anti-V5 antibody; both purified
# [2] = molecular target: collagen type 1 (UniProt P02454); assay: ELISA; solid-phase binding assay; collagen type 1, gelatin or fibronectin coated at 20 μg/ml in PBS on Maxisorp plates; pro-VEGF-C in solution, detected with anti-VEGF-C antiserum 6; both purified
# [3] = molecular target: ADAMTS3 R565Q variant (human) (UniProt O15072); assay: co-IP; conditioned media of 293T-CCBE1-StrepIII cells transfected with ADAMTS3 or ADAMTS3-R565Q; ADAMTS3 immunoprecipitated with antibodies/Protein G sepharose or streptactin sepharose; detection with streptactin-HRP
# [4] = molecular target: wild type ADAMTS3 (human) (UniProt O15072); assay: as above
molecule,measurement,setting,value
N-terminal domain of CCBE1 (CCBE1-175-V5) (from UniProt Q6UXH8) (domain or fragment),binding,[1],binds
pro-VEGF-C (recombinant protein) (from UniProt P49767) (ligand),binding,[2],binds
B1,binding,[3],binds weakly
same,binding,[4],binds

# No constants are given. Whether binding was seen depends on the method and setting. A result given as binding can be weak or reduced; the word gives no strength. For some of these results: In cells and extracts the contact can be indirect.
